{
  "sequences": {"note": "Chains of the proteins cited; added tags and fusions are not shown.", "UniProt P27695, whole entry, looked up": "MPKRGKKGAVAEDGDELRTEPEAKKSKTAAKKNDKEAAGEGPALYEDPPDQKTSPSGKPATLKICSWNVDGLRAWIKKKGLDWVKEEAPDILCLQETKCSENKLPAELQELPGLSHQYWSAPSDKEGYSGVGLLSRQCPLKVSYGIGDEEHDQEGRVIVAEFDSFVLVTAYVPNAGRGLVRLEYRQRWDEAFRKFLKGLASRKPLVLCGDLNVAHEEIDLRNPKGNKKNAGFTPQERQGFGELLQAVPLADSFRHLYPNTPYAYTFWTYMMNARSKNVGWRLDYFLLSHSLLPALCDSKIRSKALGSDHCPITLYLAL"},
  "source": "PubChem BioAssay AID2517",
  "about": "(National Center for Advancing Translational Sciences (NCATS), 2010)",
  "note": "Out of some 350,000 compounds screened, about 1,200 (0.34%) were called active. Inconclusive results, whose numbers are uncertain, are shown with a selection of clear calls. The call rests on the fitted dose curve; in most records, active means well fitted inhibition curve with a large enough effect; inconclusive means small, poorly fitted or top-dose-only effect; inactive means no such curve, though single readings can be large or run the other way. A potency beside an inconclusive call is a rough fit, not a confirmed value. Potency means the concentration at half of the fitted maximal effect.",
  "data": [
    {"molecular_target": "DNA repair nuclease/redox regulator APEX1 (Homo sapiens) (UniProt P27695)", "assay": "qHTS Assay for Inhibitors of the Human Apurinic/apyrimidinic Endonuclease 1 (APE1); further: nearly all actives have a fitted effect of over 55% in size;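 on activity change, negative = inhibition: plate controls were vehicle for no effect and reference inhibitor for full effect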", "conditions": "recombinant APE1, TAMRA/BHQ-2 abasic DNA cleavage fluorescence; activity change, negative = inhibition: at 65.8 µM (top of the series)", "outline": "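Incision of a quenched TAMRA/BHQ-2 THF abasic-site duplex (50 nM) by 0.75 nM APE1, after 15 min compound preincubation, measured as fluorescence increase over three 60 s reads. Values normalized to buffer, DMSO and NSC13755 control wells.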", "values": [
      {"smiles": "CC(CCc1ccccc1)NC(=O)/C=C/c1ccc(Cl)cc1", "note": "(stereo not drawn)", "Potency": "inconclusive: 8.91 µM [inhibitor, single point]"},
      {"smiles": "CN(C)CCN=Cc1c(O)n(Cc2ccccc2)c(=O)c2ccccc12", "Potency": "inconclusive: 8.91 µM [inhibitor, partial curve]"},
      {"smiles": "O=C1N=C(N2CCc3ccccc3C2)S/C1=C\\c1ccc(O)cc1", "Potency": "inconclusive: 3.98 µM [inhibitor, full curve, poor fit]"},
      {"smiles": "COc1cc(NC(=S)NC2CC2)c(OC)cc1Cl", "Potency": "inconclusive: 8.91 µM [inhibitor, full curve, poor fit]"},
      {"smiles": "COc1cc2c(cc1OC)[C@@H]1C(=O)c3ccc4c(c3O[C@@H]1CO2)C=CC(C)(C)O4", "Potency": "inconclusive: 3.55 µM [inhibitor, full curve, poor fit]"},
      {"smiles": "CCCCCN=c1ccn(Cc2ccccc2)c2ccccc12", "activity change, negative = inhibition": "inactive: -3.68%"},
      {"smiles": "COc1ccc(C)cc1S(=O)(=O)N(C)CC(=O)NC1CCCC1", "Potency": "inconclusive: 39.8 µM [inhibitor, single point]"},
      {"smiles": "O=C(O)c1cc([N+](=O)[O-])ccc1NCCCc1ccccc1", "Potency": "inconclusive: 10 µM [inhibitor, partial curve]"},
      {"smiles": "Cc1cnc(C(=O)Nc2cc(S(=O)(=O)N3CCOCC3)ccc2N2CCN(C)CC2)cn1", "Potency": "inconclusive: 56.2 µM [inhibitor, single point]"},
      {"smiles": "COc1cc(/C=N/Nc2ccccc2)ccc1O", "activity change, negative = inhibition": "inactive: 38.1%"},
      {"smiles": "COc1ccc(C(C)=O)cc1CN1C(=O)C(C)N(c2ccc(C)cc2)C1=O", "note": "(stereo not drawn)", "Potency": "inconclusive: 8.91 µM [inhibitor, single point]"},
      {"smiles": "COC(=O)c1ccc2c(c1)N(Cc1cc(C)ccc1C)C(=O)c1ccccc1S2=O", "note": "(stereo not drawn)", "Potency": "inconclusive: 3.16 µM [inhibitor, single point]"},
      {"smiles": "CC(CC(=O)O)Nc1ccccc1O", "note": "(stereo not drawn)", "Potency": "inconclusive: 44.7 µM [inhibitor, single point]"},
      {"smiles": "Cc1ccc(Nc2nc(N)nc(CN3CCN(C)CC3)n2)cc1", "Potency": "inconclusive: 0.0126 µM [inhibitor, full curve, poor fit]"},
      {"smiles": "O=C(O)c1cc(NCc2cc(O)ccc2O)ccc1O", "activity change, negative = inhibition": "inactive: -5.45%"},
      {"smiles": "NC(=O)[C@@H]1CCOc2c(I)cc([N+](=O)[O-])cc2C(=O)N[C@@H](CO)C(=O)NCC(=O)N1", "Potency": "inconclusive: 4.47 µM [inhibitor, single point]"},
      {"smiles": "CC(=O)NS(=O)(=O)c1ccc(NC(=O)c2ccc3c(c2)C(=O)N(CCC(C)C)C3=O)cc1", "Potency": "inconclusive: 31.6 µM [inhibitor, single point]"},
      {"smiles": "CC(=O)Nc1ccc(S(=O)(=O)Nc2c(C)n(C)n(-c3ccccc3)c2=O)cc1", "Potency": "inconclusive: 0.708 µM [inhibitor, full curve, poor fit]"}
    ]}
  ]
}
